The values below come from paper PMC10076289.

Sequences of proteins named here, by UniProt entry; tags and fusion partners are left off. A change or cut given only in a name is not applied to a line headed by its entry.
UniProt Q02078: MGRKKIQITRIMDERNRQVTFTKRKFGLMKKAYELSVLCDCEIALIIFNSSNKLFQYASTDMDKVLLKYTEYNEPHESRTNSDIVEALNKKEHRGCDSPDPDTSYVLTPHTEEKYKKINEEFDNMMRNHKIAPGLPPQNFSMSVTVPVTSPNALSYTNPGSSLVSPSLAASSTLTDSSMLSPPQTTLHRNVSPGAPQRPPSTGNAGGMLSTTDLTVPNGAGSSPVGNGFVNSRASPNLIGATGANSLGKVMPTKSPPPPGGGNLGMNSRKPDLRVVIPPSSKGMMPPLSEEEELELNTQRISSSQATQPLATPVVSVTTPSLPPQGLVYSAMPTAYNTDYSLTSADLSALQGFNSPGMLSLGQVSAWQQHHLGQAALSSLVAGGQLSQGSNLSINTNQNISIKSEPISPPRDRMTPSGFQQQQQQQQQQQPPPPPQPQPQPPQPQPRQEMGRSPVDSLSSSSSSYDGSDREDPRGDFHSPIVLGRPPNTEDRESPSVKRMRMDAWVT
UniProt P18421: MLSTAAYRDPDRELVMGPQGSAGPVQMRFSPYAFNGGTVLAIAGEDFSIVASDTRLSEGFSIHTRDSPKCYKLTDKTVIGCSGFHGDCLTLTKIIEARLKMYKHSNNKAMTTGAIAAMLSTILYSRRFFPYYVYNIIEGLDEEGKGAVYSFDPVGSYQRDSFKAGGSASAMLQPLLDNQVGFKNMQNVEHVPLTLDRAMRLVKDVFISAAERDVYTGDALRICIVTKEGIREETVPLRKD
UniProt Q641X8: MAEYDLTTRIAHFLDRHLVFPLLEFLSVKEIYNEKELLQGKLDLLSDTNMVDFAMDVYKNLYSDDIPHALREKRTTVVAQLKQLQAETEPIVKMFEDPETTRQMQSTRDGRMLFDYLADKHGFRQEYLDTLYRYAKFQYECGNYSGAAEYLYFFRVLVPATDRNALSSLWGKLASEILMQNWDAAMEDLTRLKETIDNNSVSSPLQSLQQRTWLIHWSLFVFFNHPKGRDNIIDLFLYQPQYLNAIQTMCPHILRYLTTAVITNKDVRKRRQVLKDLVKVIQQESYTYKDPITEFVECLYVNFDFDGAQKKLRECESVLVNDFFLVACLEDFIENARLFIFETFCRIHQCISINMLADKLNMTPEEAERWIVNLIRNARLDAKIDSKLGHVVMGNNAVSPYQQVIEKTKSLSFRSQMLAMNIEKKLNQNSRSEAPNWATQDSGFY
UniProt B0BNA7: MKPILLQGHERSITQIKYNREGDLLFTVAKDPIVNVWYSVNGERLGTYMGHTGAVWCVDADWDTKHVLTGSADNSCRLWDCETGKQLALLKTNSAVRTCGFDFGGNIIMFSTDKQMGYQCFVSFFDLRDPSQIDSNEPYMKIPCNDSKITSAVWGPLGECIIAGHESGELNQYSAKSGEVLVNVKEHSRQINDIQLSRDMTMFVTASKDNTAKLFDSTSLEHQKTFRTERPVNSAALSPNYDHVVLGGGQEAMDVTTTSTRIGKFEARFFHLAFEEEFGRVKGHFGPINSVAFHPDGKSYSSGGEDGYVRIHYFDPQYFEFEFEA
UniProt P18420: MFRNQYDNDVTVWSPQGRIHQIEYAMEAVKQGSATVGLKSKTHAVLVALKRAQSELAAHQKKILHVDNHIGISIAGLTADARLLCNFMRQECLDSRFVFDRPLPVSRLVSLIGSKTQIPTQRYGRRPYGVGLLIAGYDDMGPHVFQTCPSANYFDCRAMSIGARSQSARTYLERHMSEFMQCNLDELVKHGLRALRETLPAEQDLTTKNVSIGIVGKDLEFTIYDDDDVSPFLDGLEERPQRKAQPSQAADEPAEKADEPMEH
UniProt A1L108: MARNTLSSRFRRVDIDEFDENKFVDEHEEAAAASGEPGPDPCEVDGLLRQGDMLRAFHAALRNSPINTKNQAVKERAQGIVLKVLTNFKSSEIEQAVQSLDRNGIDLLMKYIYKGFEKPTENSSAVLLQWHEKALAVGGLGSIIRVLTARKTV
UniProt P62138: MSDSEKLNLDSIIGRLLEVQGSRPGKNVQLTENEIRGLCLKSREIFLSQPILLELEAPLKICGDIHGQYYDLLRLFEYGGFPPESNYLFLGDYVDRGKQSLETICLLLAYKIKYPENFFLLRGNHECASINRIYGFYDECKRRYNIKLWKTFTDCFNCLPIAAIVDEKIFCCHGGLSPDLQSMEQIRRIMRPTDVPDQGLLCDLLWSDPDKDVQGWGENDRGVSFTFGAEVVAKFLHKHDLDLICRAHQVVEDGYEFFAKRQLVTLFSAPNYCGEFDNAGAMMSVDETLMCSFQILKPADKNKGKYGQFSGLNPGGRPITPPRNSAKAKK
UniProt P52631: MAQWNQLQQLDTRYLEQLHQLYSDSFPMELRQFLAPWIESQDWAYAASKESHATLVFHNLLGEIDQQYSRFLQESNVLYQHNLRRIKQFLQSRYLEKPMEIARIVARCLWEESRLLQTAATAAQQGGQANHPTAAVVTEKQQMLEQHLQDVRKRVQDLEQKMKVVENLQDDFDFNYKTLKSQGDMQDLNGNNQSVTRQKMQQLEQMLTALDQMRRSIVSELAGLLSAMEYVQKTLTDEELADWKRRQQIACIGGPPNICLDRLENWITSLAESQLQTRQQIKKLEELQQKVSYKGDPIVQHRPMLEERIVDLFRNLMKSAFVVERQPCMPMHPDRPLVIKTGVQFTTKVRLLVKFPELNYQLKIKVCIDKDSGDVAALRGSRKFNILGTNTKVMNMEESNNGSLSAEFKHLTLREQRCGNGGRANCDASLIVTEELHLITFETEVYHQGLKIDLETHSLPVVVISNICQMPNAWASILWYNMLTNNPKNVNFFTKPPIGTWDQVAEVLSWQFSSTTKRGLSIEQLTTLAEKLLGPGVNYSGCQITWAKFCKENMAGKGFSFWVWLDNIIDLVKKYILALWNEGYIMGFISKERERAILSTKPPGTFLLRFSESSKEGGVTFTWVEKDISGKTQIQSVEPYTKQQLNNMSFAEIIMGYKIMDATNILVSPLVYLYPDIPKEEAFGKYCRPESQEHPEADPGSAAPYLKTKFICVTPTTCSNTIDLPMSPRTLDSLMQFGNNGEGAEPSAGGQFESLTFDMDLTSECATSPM
UniProt O35763: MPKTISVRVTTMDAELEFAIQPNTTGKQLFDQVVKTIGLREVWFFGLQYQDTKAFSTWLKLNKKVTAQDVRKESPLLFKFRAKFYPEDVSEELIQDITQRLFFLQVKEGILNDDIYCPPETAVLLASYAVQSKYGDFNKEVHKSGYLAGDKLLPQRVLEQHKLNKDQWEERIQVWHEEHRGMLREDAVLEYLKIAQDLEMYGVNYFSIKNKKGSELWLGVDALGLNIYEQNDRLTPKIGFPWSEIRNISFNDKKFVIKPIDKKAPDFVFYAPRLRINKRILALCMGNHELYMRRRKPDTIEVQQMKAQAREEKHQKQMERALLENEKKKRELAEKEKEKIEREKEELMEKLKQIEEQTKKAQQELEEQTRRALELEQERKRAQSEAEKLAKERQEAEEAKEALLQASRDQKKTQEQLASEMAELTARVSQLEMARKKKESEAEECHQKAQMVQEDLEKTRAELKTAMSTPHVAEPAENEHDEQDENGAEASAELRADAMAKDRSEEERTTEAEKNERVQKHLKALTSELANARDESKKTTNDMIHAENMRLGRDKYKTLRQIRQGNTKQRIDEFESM
UniProt P48500: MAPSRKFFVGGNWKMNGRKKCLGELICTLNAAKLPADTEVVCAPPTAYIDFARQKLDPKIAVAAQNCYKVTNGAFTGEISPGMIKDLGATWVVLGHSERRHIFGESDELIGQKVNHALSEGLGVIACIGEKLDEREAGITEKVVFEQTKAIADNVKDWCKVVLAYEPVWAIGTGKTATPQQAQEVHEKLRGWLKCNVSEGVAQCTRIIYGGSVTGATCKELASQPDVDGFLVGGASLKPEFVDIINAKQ
UniProt Q6P9U8: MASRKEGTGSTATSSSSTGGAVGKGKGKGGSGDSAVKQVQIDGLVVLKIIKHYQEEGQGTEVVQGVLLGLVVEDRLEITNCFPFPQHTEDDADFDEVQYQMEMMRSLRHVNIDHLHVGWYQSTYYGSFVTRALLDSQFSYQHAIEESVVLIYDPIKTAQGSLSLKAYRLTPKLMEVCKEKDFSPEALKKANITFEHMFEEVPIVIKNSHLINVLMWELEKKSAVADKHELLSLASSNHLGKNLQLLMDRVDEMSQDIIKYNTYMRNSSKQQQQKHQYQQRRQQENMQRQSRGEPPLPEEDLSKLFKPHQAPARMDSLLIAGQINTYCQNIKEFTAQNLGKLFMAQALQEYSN
UniProt P31977: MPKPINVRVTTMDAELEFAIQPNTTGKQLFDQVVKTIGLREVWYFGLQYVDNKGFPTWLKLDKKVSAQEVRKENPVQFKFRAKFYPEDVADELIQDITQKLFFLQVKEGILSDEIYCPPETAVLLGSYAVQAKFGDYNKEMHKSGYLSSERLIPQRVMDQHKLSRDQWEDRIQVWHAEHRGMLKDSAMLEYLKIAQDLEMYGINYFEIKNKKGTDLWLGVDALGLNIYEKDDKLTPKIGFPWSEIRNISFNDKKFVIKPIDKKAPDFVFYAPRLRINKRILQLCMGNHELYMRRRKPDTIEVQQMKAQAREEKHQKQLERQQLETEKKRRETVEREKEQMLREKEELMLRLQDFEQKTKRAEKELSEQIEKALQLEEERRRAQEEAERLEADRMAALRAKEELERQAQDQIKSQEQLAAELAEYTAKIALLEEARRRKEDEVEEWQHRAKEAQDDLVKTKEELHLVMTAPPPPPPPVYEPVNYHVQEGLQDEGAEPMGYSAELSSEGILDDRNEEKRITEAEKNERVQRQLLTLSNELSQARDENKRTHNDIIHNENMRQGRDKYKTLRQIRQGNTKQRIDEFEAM

Results are given in words; binding and its absence hold for the method and conditions named. Binding seen in cells or lysates may run through a third protein. A yes stands for co-enrichment or nearness to the bait. Other partners may have been found.

The target in the assay is 3xFlag-MEF2A (UniProt Q02078). Put plainly: affinity purification with mass spectrometry; 3xFlag-MEF2A expressed in primary neonatal rat cardiomyocytes, captured on anti-Flag magnetic beads, eluted with 0.2% TFA in 20% acetonitrile (pH 1.9), trypsin digest, iTRAQ labelling, LC-MS/MS; 3 Flag-MEF2A and 3 non-transfected control IPs.

As for PSMB1 (from UniProt P18421), the binding entry was “binds”. On to EIF3E (from UniProt Q641X8 1-445), for which the binding result is “binds”. On to EIF3I (from UniProt B0BNA7 1-325), for which the binding result was “binds”.

Regarding RBPMS (from UniProt A0A8I6G705 1-197), the binding entry is on record as “binds”. To PSMA1 (from UniProt P18420 1-263) belongs “binds”; to PKM (from UniProt P11980-2), “binds”; to “actin-related protein 2/3 complex subunit 5-like protein (from UniProt A1L108 1-153)”, “binds”. Take PP1α (from UniProt P62138 1-330): the binding entry is “binds”. Next, STAT3 (from UniProt P52631 1-770): “binds”; Moesin (from UniProt O35763 1-577): “binds”; TPI1 (from UniProt P48500 1-249): “binds”. With EIF3H (from UniProt Q6P9U8 1-352), the binding result was “binds”. To Ezrin (from UniProt P31977 1-586) belongs “binds”.
